In all, about 31,000 sequences went through this assay and about 1,400 (4.5%) were called active.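 How the source made its calls: active means median seed-adjusted z-score above 1 or below -1; inactive means the rest.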 The list shows a part of the results.

The nature of this assay: Novel Modifiers of Survival Motor Neuron (SMN) Protein: Gene Identification via Genome-wide siRNA Screen.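 Further: luminescence tracks full-length SMN protein made from the SMN2 reporter.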 The note with it: HEK293T SMN2-luciferase reporter, siRNA knockdown, 72 h; actives lie on both sides. The essentials: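 HEK293T cells stably carrying an SMN2 promoter/splicing cassette–luciferase reporter were reverse-transfected with 1 pmol siRNA per well (druggable-genome library, 3 siRNAs per gene) and grown 72 h at 37 °C. Luminescence, normalized to negative-control siRNA and log10-transformed, was scored as MAD.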
On the technique in general: In a reporter assay the amount or activity of a reporter protein is the signal.
For the sequence CAAAUGGGCUUGAUAAGAUTT against CCT5, the median seed-adjusted z-score was inactive: 0.

Consider GCCUCAGGGAUAAUCCACATT against AGBL5, for which the median seed-adjusted z-score is inactive: 0.0343.

Take GGAAUGGUGUUGAUACAAATT against RPS6KC1: the median seed-adjusted z-score is inactive: 0.344.

For the sequence GAGAAGAACUCGUACCUCUTT against ZNF783, the median seed-adjusted z-score was inactive: 0.284.

GAUGGGCACUGUGACCGAATT against PAX7: the median seed-adjusted z-score was inactive: -0.803.

GUGAAGACCUGGUAUCAGATT against BARX2: the median seed-adjusted z-score is inactive: -0.206.

For the sequence GGGAUCCAGUGUCACGUUATT against HS6ST3, the median seed-adjusted z-score was inactive: -0.405.

Consider GGCGAUCACGAGAACAAUATT against ADAM17, for which the median seed-adjusted z-score is inactive: 0.

With CAACCUAUCCGGUUUGUGATT against RAB3IP, the median seed-adjusted z-score was inactive: -0.191.

For the sequence CCAAAAGACUUUCAUCGUATT against SCN5A, the median seed-adjusted z-score was inactive: -0.167.

Consider GCAGAAUAACCUCCAGUAUTT against SLC35A2, for which the median seed-adjusted z-score was active: 1.06.

Consider AGUCAGAGUUGAACAGGUATT against AREG, for which the median seed-adjusted z-score was inactive: 0.104.

Take GCUGUUGUCUGAUAUAAGUTT against ATG4A: the median seed-adjusted z-score was inactive: -0.288.

As for GCAGCUGAGUUCUACAAGATT against RAG1, the median seed-adjusted z-score is active: -1.35.

On to CGACCUCUGUUCGAGAAGATT against F2, for which the median seed-adjusted z-score is inactive: 0.286.

For the sequence GUCGUGAACUGGACAAUAATT against RASGRF1, the median seed-adjusted z-score was inactive: 0.

Turning to CCAAAGCUCUAACCAUGGATT against CLEC4F, the median seed-adjusted z-score is inactive: 0.347.

Take AGUUUGCGAUCGUGCGGAATT against DAPK3: the median seed-adjusted z-score was inactive: -0.105.

With GUGUAUCUUUGAUCGGGAATT against LAMC2, the median seed-adjusted z-score is inactive: -0.186.

Regarding CAACGUGCCUUAUUCCAUATT against HHIP, the median seed-adjusted z-score is inactive: 0.

For the sequence CGACGGUGGAAGACACCUATT against DIRAS2, the median seed-adjusted z-score was active: -1.25.

As to CGACCCAGACAAUAGACUATT against CCNT1, the median seed-adjusted z-score is inactive: -0.72.

In the case of CCUACUUCGGAGUCUAUGATT against SLC25A4, the median seed-adjusted z-score is inactive: -0.379.

Consider CGAUGACCUUACUAGCUCATT against PPP2R5A, for which the median seed-adjusted z-score is inactive: 0.37.

CUAUCAGGAUGUAGACAAATT against SLC27A6: the median seed-adjusted z-score was inactive: -0.172.

As to CUUCCACCCGAGUACCUUUTT against HDAC10, the median seed-adjusted z-score was inactive: -0.165.

CUACGAAACCUGAAAUUCATT against SFRS14: the median seed-adjusted z-score was inactive: -0.312.

Take GGGUGUAUGAUGACCUCAATT against RENBP: the median seed-adjusted z-score is inactive: 0.587.

GGAAGAAGAUCCUAUUUUATT against ALG2: the median seed-adjusted z-score is inactive: 0.631.

With GCAGUUGACAGGACAUUCATT against TLN1, the median seed-adjusted z-score was inactive: -0.0619.

In the case of GGAACGCACUAAACCCUCATT against FXR2, the median seed-adjusted z-score is inactive: -0.133.

GCAGUAAUGUUGAUAUAGATT against VDAC3: the median seed-adjusted z-score was inactive: 0.646.

In the case of GACCACAACCUCUUCAGUATT against DHFR, the median seed-adjusted z-score is inactive: -0.952.

For GGAUCAAGAAUGUUGAGGATT against THBS3, the median seed-adjusted z-score is inactive: 0.429.

In the case of GCAAGGUCAUCGGAGACAATT against PDE2A, the median seed-adjusted z-score was inactive: -0.2.

Take GAUUCUGUGAGAUAGAUCATT against CRB1: the median seed-adjusted z-score was inactive: 0.

In the case of UGAAGAUUAUGGAGUAUUATT against ATP6V1E2, the median seed-adjusted z-score is inactive: -0.162.

On to CACCAUGGGUGGAGACUUUTT against KIF2B, for which the median seed-adjusted z-score is inactive: 0.226.

Take CGAACUUCCUCAUCGGCAATT against PRLHR: the median seed-adjusted z-score was inactive: 0.

Regarding CAGUUGAUCAUAUUCAGAATT against ZNF645, the median seed-adjusted z-score was inactive: 0.079.

Take AGAGGAUCAAGGUUUUAAATT against APBA2: the median seed-adjusted z-score was active: 1.66.

As for GACAAUACCUGCAAGCUGATT against CXCR5, the median seed-adjusted z-score was inactive: 0.0406.

For CCAGUAUCCUGAAGGCAGATT against SLC25A11, the median seed-adjusted z-score was inactive: -0.731.

GCCGCCAAGUAAAGCCUUATT against HSPB1: the median seed-adjusted z-score is inactive: 0.693.

As for GCAUACCAGUGUUAGCAAATT against UBE2V2, the median seed-adjusted z-score is inactive: 0.556.

As for GGAUAUGAAUUGUCUCCCATT against PSMB2, the median seed-adjusted z-score is inactive: 0.

For the sequence AUCAUGUUAUUGCAGCUGATT against CTSG, the median seed-adjusted z-score is inactive: -0.47.

On to GGUACUUGCUAUAAUGGAATT against TRAF5, for which the median seed-adjusted z-score is inactive: 0.598.

Turning to CAGCAUACAUGUUUAGUGATT against TRPC6, the median seed-adjusted z-score was inactive: -0.527.

GCUCCAUCAGGAUUCUCAATT against KCNQ4: the median seed-adjusted z-score was inactive: 0.583.

On to CUGCGACCAUGGUAUAGUATT against DKC1, for which the median seed-adjusted z-score is inactive: -0.203.

As to CACGUGAUCUCAUACAGGATT against ZNF613, the median seed-adjusted z-score is inactive: -0.189.

For GGCUAGAUUUUUAUAAGCATT against ZNF155, the median seed-adjusted z-score was inactive: 0.698.

For CCAAUCACGUGGAAGUUAATT against APOBEC1, the median seed-adjusted z-score was inactive: -0.323.

As to GGAUCAAGCAUGAAUUGCATT against CFL1, the median seed-adjusted z-score was inactive: 0.685.

As for CUAGAUCCUUCAAAUCUGATT against HCCS, the median seed-adjusted z-score is inactive: 0.00254.

Regarding GGAAGAGGCUGAAAAGUUUTT against TTC7B, the median seed-adjusted z-score is inactive: 0.0338.

In the case of GUGCAUUGCCUGAAACUCATT against NXF5, the median seed-adjusted z-score was inactive: -0.396.

For the sequence CGAACGAUCUGAGGAUCAATT against TXNDC3, the median seed-adjusted z-score is inactive: -0.649.

Turning to GGAUCAGCUGGAGAGCUUATT against AURKA, the median seed-adjusted z-score was inactive: -0.108.

As for AGUUCCCUUUGUAACCAUATT against ZNF669, the median seed-adjusted z-score is inactive: 0.175.

Regarding CCAUGUAUGUGCUUCCAUUTT against PCK2, the median seed-adjusted z-score was inactive: 0.318.

For CCAGCAAUAUCAACGACGATT against ZNF385D, the median seed-adjusted z-score was inactive: -0.338.

For the sequence GGGUGUAACAUGUGCGGAATT against ZNF217, the median seed-adjusted z-score was inactive: -0.872.

Turning to GUACGGGAAUAUAUGCUUATT against CDC7, the median seed-adjusted z-score is inactive: -0.236.

On to GGAUGAGGAGUGGUCAGAUTT against PACSIN3, for which the median seed-adjusted z-score is inactive: -0.0145.

On to GGUGCAGUUUCGUUGUGAATT against KISS1R, for which the median seed-adjusted z-score was inactive: -0.299.

Turning to GGGUUACAGCUAAAAUUGUTT against OC90, the median seed-adjusted z-score was inactive: 0.216.

On to ACUUCAAGAUCGUCACGGATT against FABP6, for which the median seed-adjusted z-score was inactive: 0.122.

Take GCAUAUGAAGUUACUAGCATT against MMP3: the median seed-adjusted z-score is inactive: 0.0592.

For GUCCAAGAUUUAACAGUGATT against GRPEL2, the median seed-adjusted z-score was inactive: 0.0821.

Take CAUCUGAAGUUGCAGUCUUTT against S1PR4: the median seed-adjusted z-score was inactive: 0.0951.

With GCACAGAGCUGUCCAAAGATT against ATP6V0D1, the median seed-adjusted z-score is inactive: -0.242.

For GAGCAUGAGUGGACCAACATT against DAB2IP, the median seed-adjusted z-score was inactive: 0.505.

Turning to GCAGCUAAGUACCUUGUUUTT against MSR1, the median seed-adjusted z-score is inactive: 0.0743.

Turning to GGUUCUCAUUCAAGGAUCATT against SLC5A12, the median seed-adjusted z-score is inactive: 0.279.

Take GGAGCUCUUUGAUCACAUUTT against HKDC1: the median seed-adjusted z-score is inactive: -0.119.

Turning to GAAACACCAGUAUCCAGAUTT against ENOSF1, the median seed-adjusted z-score was inactive: 0.496.

As to GAAGAACUUUAUAAGGUGATT against SARS, the median seed-adjusted z-score was inactive: 0.377.

Regarding GUGAGAAGUUGGAUGUUUATT against TRIM43, the median seed-adjusted z-score was inactive: -0.4.

Take AGUUCCGGGUGGUCAAGGATT against SYP: the median seed-adjusted z-score is inactive: -0.0289.

GAACGAGAAGUUUAACUAUTT against TTBK1: the median seed-adjusted z-score was inactive: 0.00054.

CGAGGAUUGUAGAAAUCUATT against GCH1: the median seed-adjusted z-score is inactive: 0.569.

In the case of GUUCCGUACAGAUAAAGGATT against SAE1, the median seed-adjusted z-score was inactive: 0.831.

With GCACUGUGCAGGUUGAAAATT against 6-Sep, the median seed-adjusted z-score is inactive: -0.732.

Regarding CGUGGAAAUUUUGACUGGATT against GALNT3, the median seed-adjusted z-score was inactive: -0.0426.

On to CGACAUCAAAACACGAAAATT against RNASEL, for which the median seed-adjusted z-score is inactive: 0.

For the sequence GGCUUAACUUUAGUGUUGATT against PRDM2, the median seed-adjusted z-score is active: 1.12.

Consider GGACAAGAUUGGUGGGUUATT against PEX1, for which the median seed-adjusted z-score is inactive: 0.227.

For GAAUAUUGGUUCUUCGUAATT against LRGUK, the median seed-adjusted z-score is inactive: 0.166.

For CCAGUGCAAUCAGCAGAGATT against ATP5G3, the median seed-adjusted z-score was inactive: 0.

With CAAUCCCUCAAGAUUUUAATT against PSMA7, the median seed-adjusted z-score is inactive: 0.0726.

As for CCAAGUCCUUGGUAAUCUUTT against MCCC1, the median seed-adjusted z-score was inactive: 0.298.

Turning to GGACGGUACUACAGUGUAATT against HDAC8, the median seed-adjusted z-score was inactive: 0.835.

As to CCACCUCUACCAAACAUUUTT against IL2RG, the median seed-adjusted z-score was inactive: -0.155.

For the sequence GAACUAUGAUAUCCAGUAUTT against ARG2, the median seed-adjusted z-score was inactive: -0.796.

For GAGGCUCGGUAAUCAAUGATT against DERL1, the median seed-adjusted z-score is inactive: 0.22.

Consider CUACAAAAGUUUUUCCAGATT against COX7A2L, for which the median seed-adjusted z-score is inactive: 0.

Consider CCAUCGUUUUGGUCUUGUATT against VN1R2, for which the median seed-adjusted z-score was inactive: -0.151.

On to GCAGGUAAAUUGGUGGAUUTT against SLC16A7, for which the median seed-adjusted z-score was inactive: 0.

In the case of CCUUUUCCGUUGGAACCGATT against CAMTA2, the median seed-adjusted z-score is inactive: 0.152.

Consider CUAAUUUACUAUUACGCUUTT against F2R, for which the median seed-adjusted z-score is inactive: -0.392.

In the case of CAACAGUUGUCAUCUAUGUTT against GPN1, the median seed-adjusted z-score was inactive: -0.14.

On to GCUGUUAAACGGUAUCGGATT against CREBZF, for which the median seed-adjusted z-score was inactive: 0.424.

Regarding GCAUAAUGAGAAGCGGUGATT against UPRT, the median seed-adjusted z-score was inactive: -0.441.

In the case of CAACUAUACUAUGUGCAAUTT against CALCR, the median seed-adjusted z-score was inactive: -0.404.

On to GGAAAUUGGAUACAACUGUTT against STK4, for which the median seed-adjusted z-score was inactive: 0.652.

As for CAACCCUACCAAUGCUACUTT against PTP4A2, the median seed-adjusted z-score was active: -1.45.

The values are drawn from PubChem BioAssay AID1347426 (Functional Genomics Laboratory (NCATS/FGL), 2020).
